Data on 1 substance can be found in article doi:10.1101/2023.10.24.563888.

Amino acid sequences for entries named in this document (tags omitted).
UniProt P02538: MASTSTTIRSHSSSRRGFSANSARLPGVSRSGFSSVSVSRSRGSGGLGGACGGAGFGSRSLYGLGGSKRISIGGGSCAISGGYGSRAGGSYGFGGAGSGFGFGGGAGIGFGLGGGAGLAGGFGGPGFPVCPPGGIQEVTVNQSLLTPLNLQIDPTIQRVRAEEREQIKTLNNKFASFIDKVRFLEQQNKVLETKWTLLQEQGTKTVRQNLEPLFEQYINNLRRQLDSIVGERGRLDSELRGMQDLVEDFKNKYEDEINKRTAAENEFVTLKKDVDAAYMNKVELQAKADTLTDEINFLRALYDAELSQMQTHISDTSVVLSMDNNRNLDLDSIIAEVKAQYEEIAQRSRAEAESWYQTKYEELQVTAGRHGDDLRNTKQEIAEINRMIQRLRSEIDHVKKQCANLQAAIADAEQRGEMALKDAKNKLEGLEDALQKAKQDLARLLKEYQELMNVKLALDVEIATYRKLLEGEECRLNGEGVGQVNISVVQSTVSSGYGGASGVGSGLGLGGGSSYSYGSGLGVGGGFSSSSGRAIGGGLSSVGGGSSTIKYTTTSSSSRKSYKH

The target in the assay is T1, Flag-tagged ELKS (UniProt Q8IUD2).
T1 sequence: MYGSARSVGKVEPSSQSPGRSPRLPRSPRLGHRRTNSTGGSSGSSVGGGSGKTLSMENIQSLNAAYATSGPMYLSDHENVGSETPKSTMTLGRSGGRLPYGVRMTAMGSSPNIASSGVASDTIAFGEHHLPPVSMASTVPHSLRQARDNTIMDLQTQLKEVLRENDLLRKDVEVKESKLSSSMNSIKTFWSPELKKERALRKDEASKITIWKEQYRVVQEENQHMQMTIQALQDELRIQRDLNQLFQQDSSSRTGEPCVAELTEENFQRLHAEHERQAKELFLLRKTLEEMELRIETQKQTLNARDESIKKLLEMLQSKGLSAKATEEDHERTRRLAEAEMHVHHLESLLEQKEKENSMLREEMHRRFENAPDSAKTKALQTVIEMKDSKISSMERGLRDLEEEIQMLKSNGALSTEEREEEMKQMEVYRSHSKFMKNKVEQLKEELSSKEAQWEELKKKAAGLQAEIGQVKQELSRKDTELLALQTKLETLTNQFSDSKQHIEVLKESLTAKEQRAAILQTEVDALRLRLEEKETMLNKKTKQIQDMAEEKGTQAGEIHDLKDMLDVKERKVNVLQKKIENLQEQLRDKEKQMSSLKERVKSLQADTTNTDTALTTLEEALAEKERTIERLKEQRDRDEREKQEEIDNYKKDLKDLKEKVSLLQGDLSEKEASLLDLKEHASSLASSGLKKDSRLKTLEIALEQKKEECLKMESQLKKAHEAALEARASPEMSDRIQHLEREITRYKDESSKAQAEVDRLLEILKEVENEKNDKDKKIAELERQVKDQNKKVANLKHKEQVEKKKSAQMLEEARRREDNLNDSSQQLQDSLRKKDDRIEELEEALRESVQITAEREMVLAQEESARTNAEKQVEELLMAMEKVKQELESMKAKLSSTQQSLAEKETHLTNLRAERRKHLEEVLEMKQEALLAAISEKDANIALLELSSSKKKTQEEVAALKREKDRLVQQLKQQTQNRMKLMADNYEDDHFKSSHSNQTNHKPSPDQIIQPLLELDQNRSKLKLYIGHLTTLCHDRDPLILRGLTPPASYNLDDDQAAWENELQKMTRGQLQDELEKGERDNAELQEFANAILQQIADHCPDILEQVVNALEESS
In words: co-IP.

No constants are given. Whether binding was seen depends on the method and setting. Binding seen in cells or lysates may run through a third protein. Some binding calls cover weakened binding; strength is not graded here. Where a sequence is shown, tags or fusion partners need not be part of it.

On to “K6a overexpressed in 293T cells (from UniProt P02538 1-564)”, for which the binding result was “binds”.
